Reference: US20060216761A1, “Isolation material for hormone disrupting substance, method of concentrating and method of clean-up” (priority 2002, published 2006)

Legend:
anti-estrogen antibody = experiment: Estrogen addition/recovery experiment using non-woven fabric estrogen affinity column; format: binding, rabbit; settings: for E2-T measured value: E2 1 ng/L, 300 ml to 2 ml; for E2 measured value: E2 3 ng/L, 100 ml to 2 ml
[1] = system: anti-resin component antibody; experiment: Bisphenol A (BPA) addition/recovery experiment using non-woven fabric affinity column; format: binding, rabbit; settings: BPA added 10 ng (10 ng/l)

## C[C@]12CC[C@@H]3c4ccc(O)cc4CC[C@H]3[C@@H]1CC[C@@H]2O [17β-Estradiol (E2), 17β-Estradiol]
anti-estrogen antibody; diameter 0.8 cm, 20 layers
  E2-T measured value: <0.05 µg/L
anti-estrogen antibody; diameter 0.8 cm, 40 layers
  E2-T measured value: 0.08 µg/L
anti-estrogen antibody; diameter 0.8 cm, 60 layers
  E2-T measured value: 0.09 µg/L
anti-estrogen antibody; diameter 0.8 cm, 80 layers
  E2-T measured value: 0.10 µg/L
anti-estrogen antibody; diameter 1.2 cm, 10 layers
  E2-T measured value: 0.05 µg/L
anti-estrogen antibody; diameter 1.2 cm, 20 layers
  E2-T measured value: 0.08 µg/L
anti-estrogen antibody; diameter 1.2 cm, 30 layers
  E2-T measured value: 0.10 µg/L
anti-estrogen antibody; diameter 1.2 cm, 40 layers
  E2-T measured value: 0.13 µg/L
anti-estrogen antibody; diameter 2.6 cm, 3 layers
  E2-T measured value: 0.06 µg/L
anti-estrogen antibody; diameter 2.6 cm, 6 layers
  E2-T measured value: 0.09 µg/L
anti-estrogen antibody; diameter 2.6 cm, 9 layers
  E2-T measured value: 0.12 µg/L
anti-estrogen antibody; diameter 2.6 cm, 12 layers
  E2-T measured value: 0.14 µg/L
anti-estrogen antibody; 30 layers, density 30 g/m^2, graft ratio 145%
  E2 measured value: 0.073 µg/L
anti-estrogen antibody; 30 layers, density 30 g/m^2, graft ratio 207%
  E2 measured value: 0.153 µg/L
anti-estrogen antibody; 30 layers, density 65 g/m^2, graft ratio 47%
  E2 measured value: 0.089 µg/L
anti-estrogen antibody; 30 layers, density 65 g/m^2, graft ratio 97%
  E2 measured value: 0.091 µg/L
anti-estrogen antibody; 30 layers, density 65 g/m^2, graft ratio 154%
  E2 measured value: 0.095 µg/L
anti-estrogen antibody; 30 layers, density 100 g/m^2, graft ratio 58%
  E2 measured value: 0.117 µg/L
anti-estrogen antibody; 30 layers, density 100 g/m^2, graft ratio 93%
  E2 measured value: 0.122 µg/L
anti-estrogen antibody; 30 layers, density 100 g/m^2, graft ratio 148%
  E2 measured value: 0.118 µg/L

## CC(C)(c1ccc(O)cc1)c1ccc(O)cc1 [Bisphenol A (BPA), Bisphenol A]
[1]; 8 ml eluate
  concentration of BPA recovered: 1.06 ng/mL
[1]; non-woven fabric diameter 1.2 cm, 30 layers, antibody bound 3.4 mg
  Amount of BPA recovered: 8.5 ng
